Results are given in words; binding and its absence hold for the method and conditions named. Some entries that bind do so weakly or less than the wild type.
Target: Recombinant Human Profilin 1 (human) (UniProt P07737)
Assay: intrinsic tryptophan fluorescence emission spectra

The chains behind the UniProt entries cited, without tags or fusion partners.
UniProt P07737: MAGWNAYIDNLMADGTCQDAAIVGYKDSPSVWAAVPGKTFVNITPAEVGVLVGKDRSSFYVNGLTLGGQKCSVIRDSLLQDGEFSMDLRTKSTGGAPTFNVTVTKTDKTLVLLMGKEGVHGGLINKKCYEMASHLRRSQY

B1: proline-rich peptide ac…am, covering residues 166-175 of hCPEB3 (peptide)
peptide: GPPPPAPAPQP
modifications: N-terminal acetyl; C-terminal amide
binding: binds weakly

Reference: article doi:10.1101/2020.05.12.091587
